Results published in article PMC6095599.

The chains behind the UniProt entries cited, without tags or fusion partners. Where a name states a change or a piece, a line headed by the entry shows the natural chain unless it says otherwise.
UniProt P07834: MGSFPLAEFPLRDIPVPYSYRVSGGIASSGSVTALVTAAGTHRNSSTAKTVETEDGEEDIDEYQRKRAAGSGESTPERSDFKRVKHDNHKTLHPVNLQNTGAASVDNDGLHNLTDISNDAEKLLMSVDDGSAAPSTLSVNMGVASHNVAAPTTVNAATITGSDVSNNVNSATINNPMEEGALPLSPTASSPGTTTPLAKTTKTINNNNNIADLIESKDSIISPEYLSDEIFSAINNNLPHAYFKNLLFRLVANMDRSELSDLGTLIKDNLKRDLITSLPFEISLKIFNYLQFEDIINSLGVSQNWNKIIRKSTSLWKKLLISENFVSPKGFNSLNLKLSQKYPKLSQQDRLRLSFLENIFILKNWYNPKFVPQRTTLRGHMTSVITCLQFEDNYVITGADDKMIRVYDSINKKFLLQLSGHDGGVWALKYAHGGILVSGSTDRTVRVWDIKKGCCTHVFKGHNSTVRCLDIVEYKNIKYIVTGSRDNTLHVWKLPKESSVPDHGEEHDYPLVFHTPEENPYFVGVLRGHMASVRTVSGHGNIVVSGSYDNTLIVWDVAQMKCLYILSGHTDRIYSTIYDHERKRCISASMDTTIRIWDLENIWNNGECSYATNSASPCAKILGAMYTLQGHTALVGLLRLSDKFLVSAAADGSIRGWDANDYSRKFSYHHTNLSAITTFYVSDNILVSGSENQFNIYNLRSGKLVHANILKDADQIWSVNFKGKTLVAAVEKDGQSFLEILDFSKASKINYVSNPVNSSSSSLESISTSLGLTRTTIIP

Molecular target: GST fusion to Cdc4ΔFbox (budding yeast) (UniProt P07834)
Assay: pull-down; GST fusions affinity purified with glutathione beads from extracts of cdc4ts grr1 yeast cells co-expressing Cln3–13myc; immunoblot with αmyc and αGST

binding: binds
B1: Cln3–13myc (protein, UniProt P13365 1-580)
chain: MAILKDTIIRYANARYATASGTSTATAASVSAASCPNLPLLLQKRRAIASAKSKNPNLVKRELQAHHSAISEYNNDQLDHYFRLSHTERPLYNLTNFNSQPQVNPKMRFLIFDFIMYCHTRLNLSTSTLFLTFTILDKYSSRFIIKSYNYQLLSLTALWISSKFWDSKNRMATLKVLQNLCCNQYSIKQFTTMEMHLFKSLDWSICQSATFDSYIDIFLFQSTSPLSPGVVLSAPLEAFIQQKLALLNNAAGTAINKSSSSQGPSLNINEIKLGAIMLCELASFNLELSFKYDRSLIALGAINLIKLSLNYYNSNLWENINLALEENCQDLDIKLSEISNTLLDIAMDQNSFPSSFKSKYLNSNKTSLAKSLLDALQNYCIQLKLEEFYRSQELETMYNTIFAQSFDSDSLTCVYSNATTPKSATVSSAATDYFSDHTHLRRLTKDSISPPFAFTPTSSSSSPSPFNSPYKTSSSMTTPDSASHHSHSGSFSSTQNSFKRSLSIPQNSSIFWPSPLTPTTPSLMSNRKLLQNLSVRSKRLFPVRPMATAHPCSAPTQLKKRSTSSVDCDFNDSSNLKKTR

These are yes or no findings as the source states them, for the method shown. In cells and extracts the contact can be indirect. Binding calls can cover weak binding; strength is not graded here. Sequences can lack the tags named with a protein.
